No constants are given. Whether binding was seen depends on the method and setting. A result given as binding can be weak or reduced; the word gives no strength.
What was measured:
Assay in all cases: co-phase separation
[1] = target: tau truncation, C-terminal fragment of tau (151-391) (human) (UniProt P10636)
[2] = target: tauΔPHF6 (deletion of the hexapeptide 306VQIVYK311) (human) (UniProt P10636)
[3] = target: tauΔPHF6* (deletion of the hexapeptide 275VQIINK280) (human) (UniProt P10636)

By UniProt entry, the sequences of proteins in these tests, tags left out. Where a name states a change or a piece, a line headed by the entry shows the natural chain unless it says otherwise.
UniProt P10636: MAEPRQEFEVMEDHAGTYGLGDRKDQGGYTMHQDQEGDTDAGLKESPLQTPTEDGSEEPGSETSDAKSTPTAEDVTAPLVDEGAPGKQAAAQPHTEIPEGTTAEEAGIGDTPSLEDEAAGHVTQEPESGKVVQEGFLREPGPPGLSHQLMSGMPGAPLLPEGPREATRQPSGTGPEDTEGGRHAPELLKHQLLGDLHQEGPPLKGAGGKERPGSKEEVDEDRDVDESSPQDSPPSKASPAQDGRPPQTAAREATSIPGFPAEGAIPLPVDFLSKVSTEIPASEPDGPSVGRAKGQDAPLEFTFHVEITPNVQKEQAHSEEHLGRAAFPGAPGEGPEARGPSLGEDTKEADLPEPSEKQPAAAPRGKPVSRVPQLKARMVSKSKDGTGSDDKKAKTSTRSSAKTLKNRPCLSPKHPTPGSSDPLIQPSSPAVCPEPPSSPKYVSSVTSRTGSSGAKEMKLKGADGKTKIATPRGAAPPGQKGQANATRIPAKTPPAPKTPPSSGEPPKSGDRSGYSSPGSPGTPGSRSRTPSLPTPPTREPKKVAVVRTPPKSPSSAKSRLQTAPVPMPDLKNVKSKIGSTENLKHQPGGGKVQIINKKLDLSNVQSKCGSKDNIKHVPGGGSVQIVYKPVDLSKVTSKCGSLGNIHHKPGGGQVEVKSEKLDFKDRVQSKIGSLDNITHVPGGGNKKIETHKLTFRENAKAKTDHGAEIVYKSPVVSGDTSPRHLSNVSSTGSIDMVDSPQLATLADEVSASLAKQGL

binding [1]: binds
binding [2]: binds weakly
binding [3]: binds
B1: Ydj1, yeast Hsp40 (natural protein, UniProt P25491 1-409, looked up)
chain: MVKETKFYDILGVPVTATDVEIKKAYRKCALKYHPDKNPSEEAAEKFKEASAAYEILSDPEKRDIYDQFGEDGLSGAGGAGGFPGGGFGFGDDIFSQFFGAGGAQRPRGPQRGKDIKHEISASLEELYKGRTAKLALNKQILCKECEGRGGKKGAVKKCTSCNGQGIKFVTRQMGPMIQRFQTECDVCHGTGDIIDPKDRCKSCNGKKVENERKILEVHVEPGMKDGQRIVFKGEADQAPDVIPGDVVFIVSERPHKSFKRDGDDLVYEAEIDLLTAIAGGEFALEHVSGDWLKVGIVPGEVIAPGMRKVIEGKGMPIPKYGGYGNLIIKFTIKFPENHFTSEENLKKLEEILPPRIVPAIPKKATVDECVLADFDPAKYNRTRASRGGANYDSDEEEQGGEGVQCASQ

Reference: doi:10.1101/2024.06.13.598862 (bioRxiv, 2024)
